In PubChem BioAssay AID1794844 (National Center for Advancing Translational Sciences (NCATS), 2023):
Screen size: about 2,800 compounds; fewer than 10 were called active. Not shown: some 7% with an inconclusive outcome. Calls come from the whole dose curve; as a rule, active = well fitted inhibition curve with a large enough effect; inconclusive = small, poorly fitted or top-dose-only effect; inactive = no such curve, though single readings can be large or run the other way. The list shows a part of the results.

Amino acid sequences for entries named in this document (tags omitted). A change or cut given only in a name is not applied to a line headed by its entry.
UniProt C7C422: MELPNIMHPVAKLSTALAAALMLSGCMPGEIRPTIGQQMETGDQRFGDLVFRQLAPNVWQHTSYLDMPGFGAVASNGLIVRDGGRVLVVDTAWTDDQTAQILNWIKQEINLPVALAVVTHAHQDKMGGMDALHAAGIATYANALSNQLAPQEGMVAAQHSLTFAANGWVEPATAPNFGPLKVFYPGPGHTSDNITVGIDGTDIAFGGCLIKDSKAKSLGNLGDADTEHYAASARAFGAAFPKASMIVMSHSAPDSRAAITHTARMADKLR

What follows are compounds tested against Metallo-beta-lactamase type 2 (Klebsiella pneumoniae) (UniProt C7C422) (assay: qHTS to identify inhibitors of the New Delhi Metallo-beta-lactamase (NDM): Nitrocefin screen against the machine-based learning selections.). Settings: NDM-1 enzyme, nitrocefin hydrolysis, absorbance 485 nm; activity, negative = inhibition: at the top concentration.
Summary of the method: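 NDM-1 (2 nM final) in 50 mM HEPES pH 7.0, 1 uM Zn2SO4, 0.01% Tween20 was preincubated with compounds for >30 min. Nitrocefin (16.7 uM final) was read at 485 nm after 15 min, and meropenem (50 uM final) at 300 nm after 30 min.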
Note: % of control where 0% means no effect.

Compound	activity, negative = inhibition
NC(=O)c1cccc(-c2cc3c(cn2)CN(CCc2ccccc2)CCN3)c1	inactive: -2.25% [at 57.5 µM]
CC1=C[C@@H](CNS(=O)(=O)c2ccc(F)cc2)[C@H](C(C)C)C[C@H]1CC(=O)NCCN(C)C	inactive: -6.08%
COc1ccc(CN2CCC3(CCC(=O)N(Cc4ccncc4)C3)CC2)c(F)c1	inactive: 2.84%
CC(=O)N[C@@H]1CCC[C@@H](C(=O)NC2CCOCC2)CC(=O)N(C)C1	inactive: -3.93% [at 57.5 µM]
O[C@@H]1CCN(Cc2nc(C3(O)CCN(C4CCCC4)CC3)cs2)C1	inactive: 5.52% [at 57.5 µM]
COc1ccc(C[C@H](NC(=O)[C@@]2(O)C[C@@H](O)[C@H](O)[C@@H](NC(=O)Nc3ccc(C(C)=O)cc3)C2)C(N)=O)cc1	inactive: 4.16%
COCc1nnc2n1CCC(NC(=O)COc1ccc(Cl)cc1)CC2 (stereo not drawn)	inactive: 9.46%
COc1ccc(CNC(=O)C[C@@H]2C[C@H]3O[C@H](CNC(=O)NC(C)C)[C@@H](O)[C@H]3O2)cc1	inactive: -0.199% [at 57.5 µM]
O=C(c1ccncc1)N1CC[C@H](c2nnc(-c3ccncc3)o2)C1	inactive: -3.81% [at 57.5 µM]
O=C(NC[C@H]1OC[C@@H](NCc2cccs2)[C@@H]1O)Nc1ccccc1	inactive: 1.17% [at 57.5 µM]
Cc1cccc(N(C)C(=O)Cn2c(N3CCc4ccccc4C3)nc(C)cc2=O)c1	inactive: -2.53%
N#Cc1cccc(NC(=O)c2cccc(CN3CCN(CCO)CC3)c2)c1	inactive: -3.36%
O=C(N[C@H](Cc1ccncc1)C1CC(O)C1)c1cccn1C1CC1 (stereo partly drawn)	inactive: -0.812%
O=C(Nc1ccc(-c2nnc3n2CCCC3)cc1)c1ccc2c(c1)OCO2	inactive: -3.5%
COc1cccc(CCC(=O)N2CCC3(CC2)N(c2ccccc2)C(=O)CS3(=O)=O)c1	inactive: -0.766%
Cn1cc(CN[C@H]2C[C@H]3C(=O)NC[C@@H](CCC(=O)N4CCc5ccccc54)N3C2)c2ccccc21	inactive: 6.32%
CC(=O)N1CCN(C(=O)C[C@@H]2c3nc(NC(=O)C(C)(C)C)sc3C[C@@H]3[C@](C)(CO)[C@H](O)CC[C@]32C)CC1	inactive: -12.4%
O=C(NC1CCC(O)CC1)c1ccc(-c2ncc3cnc(-c4ccccc4)cn23)cc1 (stereo not drawn)	inactive: 4.39% [at 76.7 µM]
COc1cc(C)c2c(c1C)C[C@H](C(C)C(=O)NCc1cccs1)CC2 (stereo partly drawn)	inactive: -6.74% [at 57.5 µM]
c1ccc(CCN2CCNc3cc(NCc4cccnc4)ncc3C2)cc1	inactive: 0.161% [at 57.5 µM]
Cc1ccc(OC2(C(=O)NC(C)c3nn[nH]n3)CCNCC2)cc1 (stereo not drawn)	inactive: -7.4%
O=C(N[C@@H]1CCN(Cc2cccc3nonc23)C[C@H]1O)c1cccnc1	inactive: -1.15%
COC(=O)[C@H](NC(=O)[C@@H]1C[C@@H](NS(=O)(=O)c2cccc(C(F)(F)F)c2)CCN1C(=O)CCC(=O)O)C(C)C	inactive: -6.21%
Cn1cc(-c2cnc3[nH]cc(CC(=O)Nc4cccnc4)c3c2)cn1	inactive: 2.9% [at 57.5 µM]

In the list so far, 3 have fluorine:
Compound	activity, negative = inhibition
CC1=C[C@@H](CNS(=O)(=O)c2ccc(F)cc2)[C@H](C(C)C)C[C@H]1CC(=O)NCCN(C)C	inactive: -6.08%
COc1ccc(CN2CCC3(CCC(=O)N(Cc4ccncc4)C3)CC2)c(F)c1	inactive: 2.84%
COC(=O)[C@H](NC(=O)[C@@H]1C[C@@H](NS(=O)(=O)c2cccc(C(F)(F)F)c2)CCN1C(=O)CCC(=O)O)C(C)C	inactive: -6.21%

Remaining list, next part.

Compound	activity, negative = inhibition
Cc1ccc(-c2nnc([C@H]3CCN(C(=O)CCC(=O)O)C3)o2)cc1	inactive: -4.13% [at 57.5 µM]
C[S+](=O)([O-])c1ccc(-c2cnc3n[nH]c(-c4ccccc4)c3n2)cc1	inactive: 9.34% [at 57.5 µM]
OCC1CN(Cc2cscn2)CCC12CCN(Cc1ccccc1)CC2 (stereo not drawn)	inactive: 0.811%
O=C(O)c1ccc(NCc2nc3c(n2Cc2ccccc2)C(=O)N(Cc2cccc(Cl)c2)CCN3)cc1	inactive: 10.8%
O=C(CCn1cnnn1)N1CCC2(CC1)Nc1ccccc1NC2=O	inactive: -1.98%
CSc1ccc(-c2nc(CN(C)Cc3cnccn3)c(C)o2)cc1	inactive: -7.39%
COc1ccccc1Oc1ncccc1CNC(=O)Nc1cccc(C#N)c1	inactive: -1.57%
OC(c1nc(Nc2cccc(Cl)c2)n[nH]1)C1CC1 (stereo not drawn)	inactive: 1.69% [at 76.7 µM]
Cc1cccc(-c2cccc(CCOc3cnc4c(ccn4CC(=O)O)c3)c2)c1	inactive: -9.73% [at 57.5 µM]
CC[C@H]1CN(C(C)=O)CC[C@H]1CC(=O)NC(C)C	inactive: -1.15% [at 76.7 µM]
Oc1cccc(-c2cnc3n[nH]c(-c4ccccc4)c3n2)c1	inactive: -19.7% [at 76.7 µM]
COc1ccc2[nH]c3c(c2c1)CCN(C)C31CCN(C(=O)c2ccccn2)CC1	inactive: -4.02%
CN1CCC(N2CC3(C2)C(=O)N(C)C(=O)[C@@H]2C[C@@H](O)CN23)CC1	inactive: -11.3% [at 57.5 µM]
O=C(O)C1Cc2nc[nH]c2CN1C(=O)c1cccc(-n2cccn2)c1 (stereo not drawn)	inactive: -15.3%
N[C@@H](Cc1cnc[nH]1)C(=O)N1CCC2(CC1)Nc1ccccc1NC2=O	inactive: 14.7%
Clc1ccc(-c2cnc([C@@H]3COCCN3C3CCNCC3)[nH]2)s1	inactive: 5.84% [at 57.5 µM]
Cn1ccc(NC(=O)C2(C)CCCc3cnc(NCc4ccccc4)nc32)n1 (stereo not drawn)	inactive: -0.304% [at 57.5 µM]
Cc1ccc2c(c1)N1C(=O)OC[C@@H]1CCN(Cc1cccc(Cl)c1)C2	inactive: 0.884% [at 57.5 µM]
CN(Cc1cc2n(n1)CCNC2)Cc1nc2ccsc2c(=O)[nH]1	inactive: -9.88%
CSCC(=O)N1C[C@@H](NC(=O)NC2CCCCC2)C[C@H]1C(=O)N[C@H](Cc1c[nH]c2ccccc12)C(N)=O	inactive: -1.83%
CCOCCN1C(=O)COC[C@@H]1[C@H](O)c1ccc(NC(=O)Cc2ccccc2)cc1	inactive: 5.26% [at 57.5 µM]
O=C1Nc2ccccc2O[C@H]2C[C@@H]1N(Cc1ccc3ccccc3n1)C2	inactive: -5.7% [at 57.5 µM]
COCc1noc(CCNc2cc(C)nc(-c3ccccc3O)n2)n1	inactive: -2.07%
COc1ccc(-c2ccnc(N[C@H]3CO[C@H]4[C@@H]3OC[C@H]4OC(=O)Nc3cccc(OC)c3)n2)cc1	inactive: 0.655%
